{"sequences": {"note": "Sequences of proteins named here, by UniProt entry; tags and fusion partners are left off. A change or cut given only in a name is not applied to a line headed by its entry.", "UniProt A1Z769": "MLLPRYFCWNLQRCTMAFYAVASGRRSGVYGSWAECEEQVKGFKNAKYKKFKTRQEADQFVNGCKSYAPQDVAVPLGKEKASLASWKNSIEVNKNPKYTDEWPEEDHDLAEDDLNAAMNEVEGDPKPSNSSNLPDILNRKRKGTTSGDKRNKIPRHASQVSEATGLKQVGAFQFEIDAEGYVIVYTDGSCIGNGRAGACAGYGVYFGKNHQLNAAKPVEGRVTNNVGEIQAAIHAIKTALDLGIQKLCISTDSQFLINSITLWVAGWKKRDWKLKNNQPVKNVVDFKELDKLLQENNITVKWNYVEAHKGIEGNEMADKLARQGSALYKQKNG"}, "source": "paper PMC7657459", "about": "“A second hybrid-binding domain modulates the activity of Drosophila ribonuclease H1”", "binders": {"B1": {"name": "Sniffer (protein, UniProt Q9W3H4 1-247)", "chain": "MNSILITGCNRGLGLGLVKALLNLPQPPQHLFTTCRNREQAKELEDLAKNHSNIHILEIDLRNFDAYDKLVADIEGVTKDQGLNVLFNNAGIAPKSARITAVRSQELLDTLQTNTVVPIMLAKACLPLLKKAAKANESQPMGVGRAAIINMSSILGSIQGNTDGGMYAYRTSKSALNAATKSLSVDLYPQRIMCVSLHPGWVKTDMGGSSAPLDVPTSTGQIVQTISKLGEKQNGGFVNYDGTPLAW"}}, "target": "Drosophila melanogaster ribonuclease H1, V5/His epitope-tagged (Drosophila melanogaster) (UniProt A1Z769)", "test": "affinity purification with mass spectrometry; S2 cells expressing the tagged RNase H1 bait, cross-linked in vivo with 1% formaldehyde, RIPA lysis, RNase A/DNase I/Benzonase treatment, anti-V5 immunoprecipitation, LC-MS/MS; hits found in all 5 replicates of a bait and absent from all mtYFP controls", "note": "No constants are given. Whether binding was seen depends on the method and setting. In cells and extracts the contact can be indirect. These calls come from enrichment with a bait or labelling near it, and not all partners need be listed."}
{"binder": "B1", "values": [{"measurement": "binding", "value": "binds"}]}
